Measured values as given in patent US20160228444A1, “NUCLEOSIDE ANALOGS AND USES THEREOF” (Ramot at Tel-Aviv University Ltd., priority 2015, published 2016).
Read-outs that look alike come from different tables or passages of the source.

Assays:
[1] = test system: peripheral blood lymphocytes (PBLs) from healthy volunteers; assay: MTT cell viability assay, 48 hours; type: cell-based; conditions: Homo sapiens, Lymphocyte, PHA-activated normal PBLs
Procedure: (§1) […]. The MyLa CTLC cell line (originating from an indolent mycosis fungoides patient) and the Hut-78 CTLC cell line (originating from an aggressive Sézary patient) were used to evaluate toxicity towards cancer cells, and peripheral blood lymphocytes (PBLs) from healthy volunteers were used to evaluate toxicity towards noncancerous cells.
(§2) Cell viability was determined by an MTT cell viability assay after 48 hours. MyLa cells (10^4 cells/well), Hut78 cells (5×10^3 cells/well) and normal PBLs (10^5 cells/well) were seeded in 96 well-plates. The PBLs were activated with 40 μg/10^6 cells of phytohemagglutinine (PHA) for 24 h before the experiment.

U251 cells = assay: Hoechst viability assay 72 h / median-effect combination study; conditions: Homo sapiens, U-251, 72 h, read-out: IC50 value for viability in U251 cells after 72 hours
MDA-231 cells = assay: Median-effect drug interaction, Hoechst viability, 72 h; type: cell-based; conditions: Homo sapiens
Procedure: (§3) The ratios of the drug combination were based on the ratio of their IC50 of each drug alone. Cell viability was determined by MTT assay, as described hereinabove. The drugs were added to the cells and incubated for 72 h.
Drug interaction in adherent cells was evaluated as above except that the viability was determined by Hoechst assay.

PBL = assay: Median-effect drug interaction, MTT viability, 72 h; type: cell-based; conditions: Homo sapiens
Procedure: as §2
as §3, with “The interaction between AN446 or SAHA with Dox was evaluated in PBLs and cancer cells according to the median-effect method. The ratios” for “The ratios”

HUT-78 CTCL cells = assay: as above; type: cell-based; conditions: Homo sapiens, HuT78
Procedure: as §2
as §3, with “The interaction between AN446 or SAHA with Dox was evaluated in PBLs and cancer cells according to the median-effect method. The ratios” for “The ratios”

MyLa CTLC cell line = assay: MTT cell viability assay, 48 hours; type: cell-based, human
Procedure: as §1, §2

Hut-78 CTLC cell line = assay: MTT cell viability assay, 48 hours; type: cell-based, human
Procedure: as §1, §2

Molecule `O=C(CCCCCCC(=O)Nc1ccccc1)NO` [SAHA, suberanilohydroxamic acid] has an IC50 [1] of 2500 ± 100 nM, an IC50 (U251 cells) of 1000 nM and an IC50 (MDA-231 cells; MDA-MB-231, MDA-231, in combination with Dox, read-out: com IC50) of 630 nM. It also gave an IC50 (MDA-231 cells; MDA-MB-231, MDA-231, single agent, Table 2, read-out: IC50) of 100 nM, an IC50 (MDA-231 cells; MDA-MB-231, MDA-231, single agent, Table 3, read-out: IC50) of 1200 ± 300 nM and an IC50 (PBL; in combination with Dox, read-out: com IC50) of 500 nM. For the same molecule, the IC50 (PBL; single agent, Table 2, read-out: IC50) was 2500 nM, the IC50 (HUT-78 CTCL cells; HUT-78, in combination with Dox, read-out: com IC50) was 630 nM and the IC50 (HUT-78 CTCL cells; HUT-78, single agent, Table 2, read-out: IC50) was 640 nM. The IC50 (MyLa CTLC cell line; Homo sapiens, MTT, 48 hours) was 4300 ± 180 nM, the “toxicity to MyLa cells relative to normal PBLs” value (MyLa CTLC cell line; from Table 1 IC50 values) was “more toxic to PBLs than to MyLa cells” and the IC50 (Hut-78 CTLC cell line; Homo sapiens, HuT78, MTT, 48 hours) was 700 ± 50 nM. The “toxicity to Hut-78 cells relative to normal PBLs” value (Hut-78 CTLC cell line; from Table 1 IC50 values) was “only moderately more toxic to Hut-78 cells than to PBLs”.
